Laboratory results published in US9815798B2 (priority 2014, dated 2017).
Some of these results come from one statement about several compounds together.

The compounds below were run on Pyricularia oryzae (assay: not given). Details: 31 ppm; measured at 405 nm 7 days after inoculation; active compound-free control = 100%.
Format: cell-based

Structure (SMILES)	growth (relative growth in % of the pathogen)
CC=Cc1ccc(C(O)(CC)Cn2cncn2)c(Cl)c1 (centres unmarked) [Compound I-46]	≤ 19%
CC=Cc1ccc(C(O)(Cn2cncn2)C2CC2)c(Cl)c1 (centres unmarked) [Compound I-31]	≤ 19%
OC(Cn1cncn1)(c1ccc(C=C(Br)Br)cc1Cl)C1CC1 (centres unmarked) [Compound I-15]	≤ 19%
OC(Cn1cncn1)(c1ccc(C=CBr)cc1Cl)C1CC1 (centres unmarked) [Compound I-52]	≤ 19%
CCC(O)(Cn1cncn1)c1ccc(C=CC2CC2)cc1Cl (centres unmarked) [Compound I-29]	≤ 19%
OC(Cn1cncn1)(c1ccc(C=CC2CC2)cc1Cl)C1CC1 (centres unmarked) [Compound I-4]	≤ 19%
CC(O)(Cn1cncn1)c1ccc(C=CC2CC2)cc1C(F)(F)F (centres unmarked) [Compound I-8]	≤ 19%
CC(C)=Cc1ccc(C(O)(Cn2cncn2)C2CC2)c(Cl)c1 (centres unmarked) [Compound I-3]	≤ 19%
CC(C)(C)C=Cc1ccc(C(C)(O)Cn2cncn2)c(C(F)(F)F)c1 (centres unmarked) [Compound I-14]	≤ 19%
C=C(c1ccc(C(O)(Cn2cncn2)C2CC2)c(Cl)c1)C(F)(F)F (centres unmarked) [Compound I-34]	≤ 19%
C[Si](C)(C)C=Cc1ccc(C(O)(Cn2cncn2)C2CC2)c(Cl)c1 (centres unmarked) [Compound I-37]	≤ 19%
CC=C(C)c1ccc(C(O)(Cn2cncn2)C2CC2)c(Cl)c1 (centres unmarked) [Compound I-38]	≤ 19%
COC(=O)C=Cc1ccc(C(O)(Cn2cncn2)C2CC2)c(Cl)c1 (centres unmarked) [Compound I-19]	≤ 19%
CC(C)(C)C=Cc1ccc(C(C)(O)Cn2cncn2)cc1 (centres unmarked) [Compound I-12]	≤ 19%
C=C(C)c1ccc(C(O)(Cn2cncn2)C2CC2)c(Cl)c1 (centres unmarked) [Compound I-32]	≤ 19%
C=Cc1ccc(C(O)(Cn2cncn2)C2CC2)c(Cl)c1 (centres unmarked) [Compound I-18]	≤ 19%
CCC(O)(Cn1cncn1)c1ccc(C=CC2CC2)cc1 (centres unmarked) [Compound I-30]	≤ 19%
OC(Cn1cncn1)(c1ccc(C=CC=C(Br)Br)cc1Cl)C1CC1 (centres unmarked) [Compound I-44]	≤ 19%
CC(C)(C)C(O)(Cn1cncn1)c1ccc(C=CC2CC2)cc1Cl (centres unmarked) [Compound I-26]	≤ 19%

The compounds below were run on Phakopsora pachyrhizi (assay: Protective control of soy bean rust on soy beans caused by Phakopsora pachyrhizi (Phakpa P2), green house). Details: soy bean seedlings sprayed with 16 ppm, inoculated after 2 days, assessed after fourteen days; untreated plants 80% infected.
Format: in vivo

Structure (SMILES)	infection (% diseased leaf area)
CC=Cc1ccc(C(O)(CC)Cn2cncn2)c(Cl)c1 (centres unmarked) [Compound I-46]	≤ 15%
CC=Cc1ccc(C(O)(Cn2cncn2)C2CC2)c(Cl)c1 (centres unmarked) [Compound I-31]	≤ 15%
OC(Cn1cncn1)(c1ccc(C=C(Br)Br)cc1Cl)C1CC1 (centres unmarked) [Compound I-15]	≤ 15%
OC(Cn1cncn1)(c1ccc(C=CBr)cc1Cl)C1CC1 (centres unmarked) [Compound I-52]	≤ 15%
CCC(O)(Cn1cncn1)c1ccc(C=CC2CC2)cc1Cl (centres unmarked) [Compound I-29]	≤ 15%
C=C(c1ccc(C(O)(Cn2cncn2)C2CC2)c(Cl)c1)C(F)(F)F (centres unmarked) [Compound I-34]	≤ 15%
C[Si](C)(C)C=Cc1ccc(C(O)(Cn2cncn2)C2CC2)c(Cl)c1 (centres unmarked) [Compound I-37]	≤ 15%
C=C(C)c1ccc(C(O)(Cn2cncn2)C2CC2)c(Cl)c1 (centres unmarked) [Compound I-32]	≤ 15%
CC(C)(C)C(O)(Cn1cncn1)c1ccc(C=CC2CC2)cc1Cl (centres unmarked) [Compound I-26]	≤ 15%

The compounds below were run on Septoria tritici (assay: Activity against leaf blotch on wheat caused by Septoria tritici (Septtr), microtiter plate). Details: 31 ppm; measured at 405 nm 7 days after inoculation; active compound-free control = 100%.
Format: cell-based

Structure (SMILES)	growth (relative growth in % of the pathogen)
CC=Cc1ccc(C(O)(CC)Cn2cncn2)c(Cl)c1 (centres unmarked) [Compound I-46]	≤ 20%
CC=Cc1ccc(C(O)(Cn2cncn2)C2CC2)c(Cl)c1 (centres unmarked) [Compound I-31]	≤ 20%
OC(Cn1cncn1)(c1ccc(C=C(Br)Br)cc1Cl)C1CC1 (centres unmarked) [Compound I-15]	≤ 20%
OC(Cn1cncn1)(c1ccc(C=CBr)cc1Cl)C1CC1 (centres unmarked) [Compound I-52]	≤ 20%
OC(Cn1cncn1)(c1ccc(C=CC2CC2)cc1Cl)C1CC1 (centres unmarked) [Compound I-4]	≤ 20%
CC(O)(Cn1cncn1)c1ccc(C=CC2CC2)cc1C(F)(F)F (centres unmarked) [Compound I-8]	≤ 20%
CC(C)=Cc1ccc(C(O)(Cn2cncn2)C2CC2)c(Cl)c1 (centres unmarked) [Compound I-3]	≤ 20%
CC(C)(C)C=Cc1ccc(C(C)(O)Cn2cncn2)c(C(F)(F)F)c1 (centres unmarked) [Compound I-14]	≤ 20%
CC(O)(Cn1cncn1)c1ccc(C=CC2CC2)cc1 (centres unmarked) [Compound I-9]	≤ 20%
C=C(c1ccc(C(O)(Cn2cncn2)C2CC2)c(Cl)c1)C(F)(F)F (centres unmarked) [Compound I-34]	≤ 20%
CC=C(C)c1ccc(C(O)(Cn2cncn2)C2CC2)c(Cl)c1 (centres unmarked) [Compound I-38]	≤ 20%
COC(=O)C=Cc1ccc(C(O)(Cn2cncn2)C2CC2)c(Cl)c1 (centres unmarked) [Compound I-19]	≤ 20%
CC(C)(C)C=Cc1ccc(C(C)(O)Cn2cncn2)cc1 (centres unmarked) [Compound I-12]	≤ 20%
C=C(C)c1ccc(C(O)(Cn2cncn2)C2CC2)c(Cl)c1 (centres unmarked) [Compound I-32]	≤ 20%
C=Cc1ccc(C(O)(Cn2cncn2)C2CC2)c(Cl)c1 (centres unmarked) [Compound I-18]	≤ 20%

Each compound was assayed on Botrytis cinerea (assay: Activity against the grey mold Botrytis cinerea in the microtiterplate test (Botrci)). Details: 31 ppm; measured at 405 nm 7 days after inoculation; active compound-free control = 100%.
Format: cell-based

Structure (SMILES)	growth (relative growth in % of the pathogen)
CC=Cc1ccc(C(O)(CC)Cn2cncn2)c(Cl)c1 (centres unmarked) [Compound I-46]	≤ 12%
CC=Cc1ccc(C(O)(Cn2cncn2)C2CC2)c(Cl)c1 (centres unmarked) [Compound I-31]	≤ 12%
OC(Cn1cncn1)(c1ccc(C=C(Br)Br)cc1Cl)C1CC1 (centres unmarked) [Compound I-15]	≤ 12%
OC(Cn1cncn1)(c1ccc(C=CBr)cc1Cl)C1CC1 (centres unmarked) [Compound I-52]	≤ 12%
OC(Cn1cncn1)(c1ccc(C=CC2CC2)cc1Cl)C1CC1 (centres unmarked) [Compound I-4]	≤ 12%
CC(O)(Cn1cncn1)c1ccc(C=CC2CC2)cc1C(F)(F)F (centres unmarked) [Compound I-8]	≤ 12%
CC(C)=Cc1ccc(C(O)(Cn2cncn2)C2CC2)c(Cl)c1 (centres unmarked) [Compound I-3]	≤ 12%
CC(O)(Cn1cncn1)c1ccc(C=CC2CC2)cc1 (centres unmarked) [Compound I-9]	≤ 12%
C=C(c1ccc(C(O)(Cn2cncn2)C2CC2)c(Cl)c1)C(F)(F)F (centres unmarked) [Compound I-34]	≤ 12%
CC=C(C)c1ccc(C(O)(Cn2cncn2)C2CC2)c(Cl)c1 (centres unmarked) [Compound I-38]	≤ 12%
COC(=O)C=Cc1ccc(C(O)(Cn2cncn2)C2CC2)c(Cl)c1 (centres unmarked) [Compound I-19]	≤ 12%
CC(C)(C)C=Cc1ccc(C(C)(O)Cn2cncn2)cc1 (centres unmarked) [Compound I-12]	≤ 12%
C=C(C)c1ccc(C(O)(Cn2cncn2)C2CC2)c(Cl)c1 (centres unmarked) [Compound I-32]	≤ 12%
C=Cc1ccc(C(O)(Cn2cncn2)C2CC2)c(Cl)c1 (centres unmarked) [Compound I-18]	≤ 12%
OC(Cn1cncn1)(c1ccc(C=CC=C(Br)Br)cc1Cl)C1CC1 (centres unmarked) [Compound I-44]	≤ 12%
CC(C)(C)C(O)(Cn1cncn1)c1ccc(C=CC2CC2)cc1Cl (centres unmarked) [Compound I-26]	≤ 12%

Each compound was assayed on Alternaria solani (assay: Preventative fungicidal control of early blight on tomatoes (Alternaria solani) (Alteso P1), green house). Details: tomato plants sprayed with 125 ppm, inoculated next day, assessed after 5 days; untreated plants 80% infected.
Format: in vivo

Structure (SMILES)	infection (% diseased leaf area)
CC=Cc1ccc(C(O)(CC)Cn2cncn2)c(Cl)c1 (centres unmarked) [Compound I-46]	≤ 16%
CC=Cc1ccc(C(O)(Cn2cncn2)C2CC2)c(Cl)c1 (centres unmarked) [Compound I-31]	≤ 16%
OC(Cn1cncn1)(c1ccc(C=C(Br)Br)cc1Cl)C1CC1 (centres unmarked) [Compound I-15]	≤ 16%
OC(Cn1cncn1)(c1ccc(C=CBr)cc1Cl)C1CC1 (centres unmarked) [Compound I-52]	≤ 16%
CCC(O)(Cn1cncn1)c1ccc(C=CC2CC2)cc1Cl (centres unmarked) [Compound I-29]	≤ 16%
OC(Cn1cncn1)(c1ccc(C=CC2CC2)cc1Cl)C1CC1 (centres unmarked) [Compound I-4]	≤ 16%
CC(O)(Cn1cncn1)c1ccc(C=CC2CC2)cc1C(F)(F)F (centres unmarked) [Compound I-8]	≤ 16%
CC(C)=Cc1ccc(C(O)(Cn2cncn2)C2CC2)c(Cl)c1 (centres unmarked) [Compound I-3]	≤ 16%
CC=C(C)c1ccc(C(O)(Cn2cncn2)C2CC2)c(Cl)c1 (centres unmarked) [Compound I-38]	≤ 16%
C=Cc1ccc(C(O)(Cn2cncn2)C2CC2)c(Cl)c1 (centres unmarked) [Compound I-18]	≤ 16%
CCC(O)(Cn1cncn1)c1ccc(C=CC2CC2)cc1 (centres unmarked) [Compound I-30]	≤ 16%
OC(Cn1cncn1)(c1ccc(C=CC=C(Br)Br)cc1Cl)C1CC1 (centres unmarked) [Compound I-44]	≤ 16%
